# Laboratory results taken from paper PMC7819943, “Rice protein-binding microarrays: a tool to detect cis-acting elements near promoter regions in rice”.
# The list shows a part of the results.
# Target: T1, OsSMF1 (Oryza sativa, UniProt Q6ZLB0 1-436)
# T1 sequence: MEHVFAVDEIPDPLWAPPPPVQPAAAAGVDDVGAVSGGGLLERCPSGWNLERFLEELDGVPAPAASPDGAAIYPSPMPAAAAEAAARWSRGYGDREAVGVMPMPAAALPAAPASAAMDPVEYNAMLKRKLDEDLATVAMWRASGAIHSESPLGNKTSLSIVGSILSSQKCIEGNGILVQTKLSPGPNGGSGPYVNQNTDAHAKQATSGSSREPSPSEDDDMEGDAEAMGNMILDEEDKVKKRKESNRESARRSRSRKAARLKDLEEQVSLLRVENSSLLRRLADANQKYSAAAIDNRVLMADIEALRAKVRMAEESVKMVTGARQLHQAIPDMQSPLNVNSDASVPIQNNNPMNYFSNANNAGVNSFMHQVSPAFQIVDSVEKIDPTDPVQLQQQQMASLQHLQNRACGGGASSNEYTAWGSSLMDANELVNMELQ
# Assay: protein-binding microarray (RPBM); PBS, 2% BSA, 51.3 ng/ul salmon testes DNA, 50 uM zinc acetate, 200 nM TF, 25 C, 1 h; high values mean tight binding
# Conditions: protein: recombinant; tags: N-terminal polyhistidine and DsRed monomer fusion (pET32a); chain copies: 2; label: CyDye5-dUTP incorporated in the synthesized complementary strand; 3' TTTTT single-stranded linker to array surface; dsDNA, one strand shown
# In short: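 The binding signal is fluorescence intensity per array feature (arbitrary units). Readings came from an Axon 4000B scanner after a washed, 2% BSA-blocked, double-stranded custom Agilent array had been incubated for 1 h at 25 °C with 200 nM protein and 50 µM zinc acetate. The protein was a Ni–NTA-purified transcription factor fused N-terminally to polyhistidine and DsRed, expressed in E. coli BL21-CodonPlus.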
row,Sequence,binding signal
1,CGCCTTCCTCCCAATCTTGTTGTTTCGGCGGCGGCGGCGGCGGAGTCACCTAGTGCAG,3420 fluorescence intensity (a.u.)
2,AGCTGGTAGCTGCTGCCGGTGGTGCCGATCGACTGCCGGACGGAGTCACCTAGTGCAG,4990 fluorescence intensity (a.u.)
3,CCCGGGAGATGCCATGCTGGCAGGTGGGCCCCACGCCAGGCGGAGTCACCTAGTGCAG,5050 fluorescence intensity (a.u.)
4,TGTCTCGTTTGATTCGACTGTGACTGATGAAATCGTGGTTCGGAGTCACCTAGTGCAG,3260 fluorescence intensity (a.u.)
5,CACCACTGACCACACCCTCTCGTCCGCGTGACATCTGGATCGGAGTCACCTAGTGCAG,3940 fluorescence intensity (a.u.)
6,AACCACGCTTTCCTATGGCCCACCTGTCATGTAATCAGTTCGGAGTCACCTAGTGCAG,5290 fluorescence intensity (a.u.)
7,GCAGCCACGTCTCCTCCACCACCTCGTCTCCCTCTCGAGACGGAGTCACCTAGTGCAG,4450 fluorescence intensity (a.u.)
8,TAATGGGCGGTAGTAGATCCACGTAGGCGCGCGTAATTGGCGGAGTCACCTAGTGCAG,12700 fluorescence intensity (a.u.)
9,TTTTCATATTGAAATGGTGTGTAAGCGCCACATAGGCGCTCGGAGTCACCTAGTGCAG,6290 fluorescence intensity (a.u.)
10,TCAGAACAGTACACCCGTCACAGTTATTTGATCGCCTGTGCGGAGTCACCTAGTGCAG,3770 fluorescence intensity (a.u.)
11,GTCGATCCATGTCACTGACCTGCACGTTTAATTATAGCCACGGAGTCACCTAGTGCAG,5380 fluorescence intensity (a.u.)
12,TCGGTGCCAAATTAGGCTGACAAGGAGAAAATTTCATGCCCGGAGTCACCTAGTGCAG,3360 fluorescence intensity (a.u.)
13,GAAGTGTTAGCTAGCTAGGCATGTAGACACCTGGCATGGCCGGAGTCACCTAGTGCAG,3360 fluorescence intensity (a.u.)
14,CGATGAGGAGGAGGAGGGGCAACAGTGTTAGGGTGGATTTCGGAGTCACCTAGTGCAG,3140 fluorescence intensity (a.u.)
15,CTAATTACATATGTAAGTGGGGTGTAAATGAGGTGTAACTCGGAGTCACCTAGTGCAG,5770 fluorescence intensity (a.u.)
16,GGGAGTACATTTCTATTAGTTGCCAGATGAGAATTTGCAACGGAGTCACCTAGTGCAG,3470 fluorescence intensity (a.u.)
17,ACCTGGGAGCTTGCTGACCTCCCTCGTGGTCACCGCGCGACGGAGTCACCTAGTGCAG,3340 fluorescence intensity (a.u.)
18,TAGATTGCTATCTTTCCCGGGTTTCTCCCCGTCCGCGCGGCGGAGTCACCTAGTGCAG,21900 fluorescence intensity (a.u.)
19,GCCGCAACGCATCCGTCGGCGCTGCTCCCGACTGAAGATTCGGAGTCACCTAGTGCAG,3500 fluorescence intensity (a.u.)
20,AGGTTTGTTATGGACCTATTCGTAAACAAATAGGTCCAACCGGAGTCACCTAGTGCAG,31800 fluorescence intensity (a.u.)
21,CGTTCCCCTCCGCCGCTTGCGTGGACTAGTGGACGCCCACCGGAGTCACCTAGTGCAG,7820 fluorescence intensity (a.u.)

row,Sequence,binding signal
1,CTGCGGTTGCATTGCATGGAGATGGACCCTCAACCAGCTACGGAGTCACCTAGTGCAG,3700 fluorescence intensity (a.u.)
2,TTGCTTGTGTGCTGTTGTCGTGCGTGACTAATGTACCAGCCGGAGTCACCTAGTGCAG,3760 fluorescence intensity (a.u.)
3,ACCCGGGCCAGCTCACCGCCAGCCCAAACCCCGCAGCCGACGGAGTCACCTAGTGCAG,3970 fluorescence intensity (a.u.)
4,CCCTGCCCGAAACGTGTCACGGCCCATCTCGTGCTCGAAACGGAGTCACCTAGTGCAG,4560 fluorescence intensity (a.u.)
5,CAAGCATGTGATGTGAATGGGCAGTCGACGTGGACGGCTACGGAGTCACCTAGTGCAG,7550 fluorescence intensity (a.u.)
6,AATCATGCAATAATACAAGCTTCGTTTTGCGTGCCGGGAACGGAGTCACCTAGTGCAG,3210 fluorescence intensity (a.u.)
7,CGGTAGTATAAGGTTTATCTGTTTCCTGACGTTTGATTTGCGGAGTCACCTAGTGCAG,3600 fluorescence intensity (a.u.)
8,TAAGCCCTATGGGCTTACAGCCCACGTGTCGGCCCAACTCCGGAGTCACCTAGTGCAG,9490 fluorescence intensity (a.u.)
9,CACTTCTCCAGTAATGGAGGGATTGATCGGGGTGACGTGGCGGAGTCACCTAGTGCAG,34900 fluorescence intensity (a.u.)
10,CCCTCATCGCCGGCCGGCCGTCGGACCTCCATGCCCCGGCCGGAGTCACCTAGTGCAG,4250 fluorescence intensity (a.u.)
11,GGCGAGGAGGTGTGCCACGTCAGGATTTTGCTACAGTATGCGGAGTCACCTAGTGCAG,11700 fluorescence intensity (a.u.)
12,GCCATGTGGTTTAATAAAAGTCAAATCCTTGTTCTGATAACGGAGTCACCTAGTGCAG,3230 fluorescence intensity (a.u.)
13,TTGCTCTTAGCAAACCAGATCGTGTCACCTGCTGGGGTTACGGAGTCACCTAGTGCAG,4520 fluorescence intensity (a.u.)
14,AGCCGGAGCGGTCGAGCCGCCGCGGCCTCGTCGGCGTGGACGGAGTCACCTAGTGCAG,3950 fluorescence intensity (a.u.)
15,ACACTACTGGCACCTACATACGTGGCGGGGCGCTCCGGTGCGGAGTCACCTAGTGCAG,6990 fluorescence intensity (a.u.)
16,GCAGAGTTTCCGGTTGCCACCGCACCCGTCATGCTTCTTCCGGAGTCACCTAGTGCAG,4120 fluorescence intensity (a.u.)
17,CCACTGTTGCATGACAATAACATCATGTGAATCAGCACAGCGGAGTCACCTAGTGCAG,5860 fluorescence intensity (a.u.)
18,TCAGACCGACAAGGCATTGCGTGGCACAGGTCGTACACTCCGGAGTCACCTAGTGCAG,5110 fluorescence intensity (a.u.)
19,TTGTTTGCTTATACAGTGACTGTCCGTGCATTAGTGGAAACGGAGTCACCTAGTGCAG,4660 fluorescence intensity (a.u.)
20,CCGCCATGCGCACAATCCACGTGTCACGTCACCCTCCTCACGGAGTCACCTAGTGCAG,21400 fluorescence intensity (a.u.)
21,GCAATCCTTAACTCCTTCCCTGACGCAGCCTCCATGCATCCGGAGTCACCTAGTGCAG,3260 fluorescence intensity (a.u.)

# In a second layout: entries from further up
row | Sequence | binding signal
10 | TCAGAACAGTACACCCGTCACAGTTATTTGATCGCCTGTGCGGAGTCACCTAGTGCAG | 3770 fluorescence intensity (a.u.)
8 | TAAGCCCTATGGGCTTACAGCCCACGTGTCGGCCCAACTCCGGAGTCACCTAGTGCAG | 9490 fluorescence intensity (a.u.)
16 | GCAGAGTTTCCGGTTGCCACCGCACCCGTCATGCTTCTTCCGGAGTCACCTAGTGCAG | 4120 fluorescence intensity (a.u.)
